Data from PMC6718539.
Results are given in words; binding and its absence hold for the method and conditions named. In cells and extracts the contact can be indirect. Some binding calls cover weakened binding; strength is not graded here. Tags and fused reporters may be left off the sequences shown.

The chains behind the UniProt entries cited, without tags or fusion partners.
UniProt P49841: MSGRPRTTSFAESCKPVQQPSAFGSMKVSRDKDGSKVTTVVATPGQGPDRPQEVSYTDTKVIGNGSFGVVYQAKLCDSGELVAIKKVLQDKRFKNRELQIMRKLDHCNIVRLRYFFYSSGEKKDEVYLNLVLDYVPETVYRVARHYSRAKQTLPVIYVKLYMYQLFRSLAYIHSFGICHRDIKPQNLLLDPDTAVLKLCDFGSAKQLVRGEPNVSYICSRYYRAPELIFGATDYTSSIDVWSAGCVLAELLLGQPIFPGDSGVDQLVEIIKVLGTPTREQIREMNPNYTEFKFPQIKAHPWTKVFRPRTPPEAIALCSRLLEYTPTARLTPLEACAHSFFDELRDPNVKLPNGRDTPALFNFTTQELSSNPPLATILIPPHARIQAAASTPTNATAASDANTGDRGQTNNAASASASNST

Target: T1, Mycoplasma hyorhinis major membrane protein p37 (Mycoplasma hyorhinis) (UniProt P15363)
T1 sequence: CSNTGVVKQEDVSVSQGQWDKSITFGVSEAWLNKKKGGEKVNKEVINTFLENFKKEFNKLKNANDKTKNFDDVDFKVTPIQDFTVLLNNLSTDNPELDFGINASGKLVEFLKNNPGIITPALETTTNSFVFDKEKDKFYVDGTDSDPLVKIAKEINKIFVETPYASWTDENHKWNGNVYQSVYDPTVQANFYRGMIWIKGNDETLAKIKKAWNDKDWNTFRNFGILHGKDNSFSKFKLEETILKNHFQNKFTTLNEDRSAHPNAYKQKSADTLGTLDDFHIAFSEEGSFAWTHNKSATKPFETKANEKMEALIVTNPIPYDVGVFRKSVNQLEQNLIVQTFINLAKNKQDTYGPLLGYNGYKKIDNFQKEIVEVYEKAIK
Assay: co-IP; lysates (500 μg) from M hyorhinis-infected gastric cancer cells immunoprecipitated with 1 μg of PD4 antibody (anti-p37) or pre-immune IgG; input 50 μg of lysates; Western blot for LRP6 and GSK3β

Substance: GSK3β (from UniProt P49841 1-420) (enzyme)
- binding: binds
